Measurements from patent publication EP2385124A2.
These are yes or no findings as the source states them, for the method shown. Some results given as binding are weak or reduced against the parent protein; the word gives no strength. For some assays here: Where a sequence is shown, tags or fusion partners need not be part of it.

T1: GST-RGS12 PDZ domain fusion protein (human) (UniProt O14924)
T1 sequence: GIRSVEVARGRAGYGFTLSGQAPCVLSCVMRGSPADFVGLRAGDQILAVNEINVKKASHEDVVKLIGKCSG

T2: GST-MPP2 PDZ domain fusion protein (UniProt Q14168)
T2 sequence: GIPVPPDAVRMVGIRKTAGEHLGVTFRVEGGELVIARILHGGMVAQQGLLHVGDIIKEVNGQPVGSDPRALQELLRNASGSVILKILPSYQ

T3: GST-AF6 PDZ domain fusion protein (UniProt P55196)
T3 sequence: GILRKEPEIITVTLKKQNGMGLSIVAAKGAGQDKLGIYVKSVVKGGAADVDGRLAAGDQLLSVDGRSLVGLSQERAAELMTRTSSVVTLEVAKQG

T4: GST-DVL1 PDZ domain fusion protein (human) (UniProt O14640)
T4 sequence: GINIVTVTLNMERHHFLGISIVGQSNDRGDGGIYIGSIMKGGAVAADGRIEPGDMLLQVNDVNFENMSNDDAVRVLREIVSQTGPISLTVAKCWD

T5: GST-LIM PDZ domain fusion protein (human) (UniProt Q96HC4)
T5 sequence: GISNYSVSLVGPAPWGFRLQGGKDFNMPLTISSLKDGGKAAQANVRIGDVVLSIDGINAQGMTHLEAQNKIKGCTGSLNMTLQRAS


What was measured:
Test in all cases: A/G plate assay (TABLE 2)
[1] = biological target: T1, GST-RGS12 PDZ domain fusion protein (human)
[2] = biological target: T2, GST-MPP2 PDZ domain fusion protein
[3] = biological target: GST-PSD95 PDZ domains 1-3 fusion protein (human) (UniProt P78352)
[4] = biological target: T3, GST-AF6 PDZ domain fusion protein
[5] = biological target: T4, GST-DVL1 PDZ domain fusion protein (human)
[6] = biological target: T5, GST-LIM PDZ domain fusion protein (human)

Binder	binding [1]	binding [2]	also measured
EVICYIEKPGVETLEDSVF (biotin at the amino-terminus) [CDW125 (IL5R) C-terminal PL peptide AA28L]	binds		
ERLKLEPHEGLLLRFPYAA (biotin at the amino-terminus) [CD98 C-terminal PL peptide AA15L]		binds	
ISKATPALPTVSISSSAEV (biotin at the amino-terminus) [Clasp-1 C-terminal PL peptide AA1L]			binding [3]: binds
CAISGTSSDRGYGSPRYAEV (biotin at the amino-terminus) [Clasp-4 C-terminal PL peptide AA3L]			binding [4]: binds; binding [3]: binds
TTNNNPNSAVNIKKIFTDV (biotin at the amino-terminus) [KV1.3 C-terminal PL peptide AA33L]	binds		binding [5]: binds
TREDIYVNYPTFSRRPKTRV (biotin at the amino-terminus) [DNAM-1 C-terminal PL peptide AA22L]	binds	binds	binding [6]: binds
QGDPALQDAGDSSRKEYFI (biotin at the amino-terminus) [Glycophorin C C-terminal PL peptide AA37L]		binds	
